Experimental data reported in US7135457B1, “Random peptides that bind to gastro-intestinal tract (GIT) transport receptors and related methods” (Cytogen Corporation, priority 1997, dated 2006).
Square brackets hold non-standard residues; d marks the D form. Peptide text beside a SMILES is read from it. * marks the point of attachment. Dansyl = CN(C)c1cccc2c(S(=O)(=O)*)cccc12

The molecules below were run on P100 fractions harvested from Caco-2 cells (assay: Binding of dansylated peptides to P100 fractions and peptide/particle correlation). Details: Table 26.
Parameters: key: + positive; +/− equivocal; − negative
Method: Binding of peptide and/or peptide-coated PLGA particles to membrane (P100) and cytosolic (S100) fractions was assessed by detection of the dansyl moiety incorporated in the peptide. Costar ninety six well ELISA plates were coated with S100 and P100 fractions (100 μg/ml in 0.05 M NaHCO3) overnight at 4° C. The plates were blocked with 0.5% bovine serum albumin in DPBS for 1 h at room temperature and washed 3 times in 1% BSA-DPBS. Peptide-coated particles or peptides were dispersed in the same buffer and added to the plates at concentrations in the range 0.0325-0.5 mg/well. […] The plates were incubated for 1 h at room temperature. The wells were washed 3 times in 1% BSA-DPBS and 100 μl of goat anti-mouse IgGλ:HRP antibody (Southern Biotechnology 1060-05; 1:10,000) was added per well. The plates were incubated for 1 h at room temperature. After washing 3 times in 1% BSA-DPBS 100 μl of TMB substrate (3,3′,5′,5-tetramethylbenzidine; Microwell Peroxidase Substrate System (Kirkegaard and Perry Laboratories 50-76-00)) was added and the optical density was measured at 650 nm at various time intervals.
Binding of dansylated peptides to P100 fractions was assessed to determine if peptide binding was predictive of peptide-coated particle binding.

| Molecule | Assay correlation (peptide/particle) |
| --- | --- |
| STPPSREAYSRPYSVDSDSDTNAKHSSHNRRLRTRSRPN [PAX2] | +/− |
| SDHALGTNLRSDNAKEPGDYNCCGNGNSTGRKVFNRRRPSAIPT [HAX42] | + |
| C[C@@H](O)[C@H](NC(=O)[C@@H](N)CCCCNS(=O)(=O)c1cccc2c(N(C)C)cccc12)C(=O)N[C@H](CCCNC(=N)N)C(=O)N[C@@H](CCCCN)C(=O)N[C@@H](CO)C(=O)N[C@@H](CO)C(=O)N[C@H](CCCNC(=N)N)C(=O)N[C@@H](CO)C(=O)N[C@@H](CC(N)=O)C(=O)N1CCC[C@H]1C(=O)N[C@H](CCCNC(=N)N)C(=O)NCC(=O)N[C@H](CCCNC(=N)N)C(=O)N[C@H](CCCNC(=N)N)C(=O)N[C@@H](Cc1c[nH]cn1)C(=O)N1CCC[C@H]1C(=O)NCC(N)=O [ZElan053, H2N-K(dns)TrKSSrSNPrGrrHPG-CONH2] (H-K(Dansyl)T[dR]KSS[dR]SNP[dR]G[dR][dR]HPG-NH2) | − |
